This note sets out measurements from PubChem BioAssay AID1487 (National Center for Advancing Translational Sciences (NCATS), 2009).

Structures are written as SMILES. Values joined by “and” are separate entries in the source; they are usually repeats but may differ in a detail not shown here. Equal values may be shown once. Some of the results follow. Further columns of the screen follow, without active or inactive calls. Most of these compounds were active or inconclusive in the main read-out, so they are no random draw. Words in brackets tell the shape of the fitted curve; partial curves, single points and poor fits give uncertain potencies.

The nature of this assay: qHTS Assay for Modulators of Lamin A Splicing. The note with it: HeLa LMNA splicing GFP/RFP minigene ratio, 48 h. The method, boiled down: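 Read-out is the ratio of GFP to DsRed2 object intensity, acquired by 488 nm laser-scanning cytometry on HeLa lamin A-EGFP minigene reporter cells. Compound incubation 48 hrs at 37 °C in Opti-MEM with 2% FBS; DMSO 0.5% final.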
Background: Quantitative high-throughput screening tests each substance at several concentrations.

Setting [1] is: measured here: RFP viability control channel.
Where [2] appears, read: measured here: GFP splicing reporter channel.

By AC50 is commonly meant the concentration at which the activity in the assay is half-maximal. As for `O=c1cc(Nc2ccc3c(c2)OCCO3)[nH]c(=O)n1-c1ccc(Cl)cc1`, under setting [1], the half-maximal activity concentration (AC50) was 35.5 µM [rising, single point].

As to `O=C(CN1CCOCC1)Nc1ccc(S(=O)(=O)NC2CCCCC2)cc1`, the AC50 under setting [1] is 12.6 µM [rising, partial curve]. Same read-out and setting: under `O=[N+]([O-])c1cccc(C(=S)N2CCN(c3ccccc3)CC2)c1` stands 14.1 µM [rising, single point]. As for `COc1ccccc1NC(=O)N(Cc1ccco1)Cc1cc2cccc(C)c2[nH]c1=O`, under setting [1], the AC50 was 14.1 µM [rising, partial curve, poor fit].

As to `Nc1n[nH]c(-c2cccc([N+](=O)[O-])c2)n1`, under setting [1], the AC50 is 0.891 µM [rising, full curve, poor fit].

`O=C(CCCc1ccccc1)NC1CC(=O)N(c2ccc(Cl)cc2)C1` (stereo not given): the AC50 under setting [1] was 0.0794 µM [falling, partial curve, poor fit]. The same measure, in the same setting: under `O=C(NCCCN1CCOCC1)c1ccc(Sc2cccc(Cl)c2)c([N+](=O)[O-])c1` stands 12.6 µM [rising, partial curve, poor fit]; under `CC(=O)c1c(C)[nH]c(C(=O)OCC(=O)Nc2ccccc2Cl)c1C`, 12.6 µM [rising, partial curve, poor fit]. Take `Cc1ccc(OCC(=O)Nc2nnc(SCc3cc(=O)c4ccccc4[nH]3)s2)cc1C`: the AC50 by setting is: under setting [2], 1.26 µM [rising, full curve, poor fit]; under setting [1], 2.51 µM [rising, full curve]. Consider `CCCCCCCn1c2c(c(=N)c3c1CCC3)CCCC2`, for which the half-maximal activity concentration (AC50) was 1.41 µM [rising, full curve, poor fit] under setting [2] and 1.41 µM [rising, partial curve] under setting [1].

Consider `CCOc1ccc(OCCCCOc2ccccc2C(C)=O)cc1`, for which the concentration at half-maximal activity (AC50) reads like this: under setting [2], 35.5 µM [rising, single point]; under setting [1], 25.1 µM [rising, partial curve]. `CC1=Nc2cc(C(=O)NC3CCCCC3)ccc2Sc2ccc(Cl)cc21`: the AC50 under setting [1] is 0.282 µM [rising, full curve]. Take `CC(=O)c1c(C)[nH]c(C(=O)OCC(=O)N2CC(=O)Nc3ccccc32)c1C`: the AC50 under setting [2] is 5.01 µM [rising, single point]. Take `O=S(=O)(c1ccccc1)N1CCC(O)(CSc2ccc(F)cc2)CC1`: under setting [2], the AC50 was 0.398 µM [falling, partial curve, poor fit]. Consider `COC(=O)c1cc(OC)c(OC)cc1NC(=S)N1CCN(C)CC1`, for which the AC50 under setting [1] was 0.708 µM [rising, single point]. Same read-out and setting: the same measure for `CCOC(=O)c1c(NC(=O)CSc2nc3ccccc3s2)sc(C)c1C`: 35.5 µM [rising, single point]; for `Cc1ccc(-c2csc(NC(=O)N3CCOCC3)n2)cc1`: 3.55 µM [falling, partial curve]. For `COC(=O)c1ccc(COC(=O)c2[nH]c(C)c(C(C)=O)c2C)o1`, under setting [1], the AC50 was 22.4 µM [rising, single point]. Still for that read-out and setting: under `Cc1cc(Cl)ccc1OCC(=O)NN1C(=O)C2C3C=CC(C3)C2C1=O` (stereo not given) stands 2.24 µM [rising, full curve]. On the same count and under the same terms, the same measure for `O=P(c1ccccc1)(c1ccccc1)c1nc(-c2ccc(Cl)cc2)oc1N1CCOCC1`: 35.5 µM [falling, single point].

Take `O=C(NN1C(=O)C2C(C1=O)C1C=CC2C12CC2)c1ccccc1` (stereo not given): the AC50 under setting [2] is 6.31 µM [rising, partial curve, poor fit]. As for `COc1cc(C(c2c(C)[nH][nH]c2=O)c2c(C)[nH][nH]c2=O)cc([N+](=O)[O-])c1O`, the AC50 under setting [2] was 0.0562 µM [rising, full curve, poor fit].

Take `Cc1cccc(NC(=O)Cc2coc3ccc4ccccc4c23)n1`: under setting [1], the AC50 was 35.5 µM [rising, single point]. Turning to `COc1ccc(CCNc2oc(COc3ccccc3Cl)nc2C#N)cc1OC`, the AC50 under setting [1] was 35.5 µM [rising, single point]. In the case of `Cc1cc(/C=C\c2ccccc2)nc2ccccc12`, the AC50 under setting [2] is 35.5 µM [falling, single point]. Still for that read-out and setting: the same measure for `COc1ccc(-c2[nH]ncc2CN2CCN(C3CCCCC3)C(=O)C2)cc1F`: 7.94 µM [falling, full curve, poor fit].

Regarding `CCOC(=O)c1c(C)[nH]c(C(=O)COC(=O)c2ccccn2)c1C`, the AC50 under setting [2] was 6.31 µM [rising, single point]. On to `COc1ccc(Br)cc1CN(C)CC(=O)Nc1cc(Cl)cc(Cl)c1`, for which the AC50 is, setting by setting: under setting [2], 14.1 µM [rising, single point]; under setting [1], 15.8 µM [rising, partial curve]. Consider `CCOC(=O)CN1C(=O)C2(OCCCO2)c2ccccc21`, for which the AC50 under setting [1] was 15.8 µM [falling, single point]. For the molecule `O=C(Cc1ccccc1)Nc1ccc(Br)c(Cl)c1`, the AC50 was 20 µM [rising, single point] under setting [2] and 25.1 µM [rising, single point] under setting [1]. Consider `CCCc1cc(=O)[nH]c(SCCOc2ccc(OCC)cc2)n1`, for which the AC50 by setting is: under setting [2], 14.1 µM [rising, partial curve]; under setting [1], 15.8 µM [rising, single point].

In the case of `O=c1c(-c2cccs2)nc2cnc(N3CCNCC3)nc2n1CCc1ccccc1`, the concentration at half-maximal activity (AC50) reads like this: under setting [2], 35.5 µM [falling, single point]; under setting [1], 35.5 µM [falling, partial curve].

Consider `S=C(NCc1ccco1)Nc1ccccc1`, for which the AC50 reads like this: under setting [2], 1.26 µM [falling, partial curve, poor fit]; under setting [1], 1.26 µM [falling, partial curve, poor fit].

With `Cc1cc(C)nc(SCC(=O)Nc2ccc(S(=O)(=O)NC(C)(C)C)cc2)n1`, the AC50 was 17.8 µM [rising, single point] under setting [2] and 17.8 µM [rising, single point] under setting [1].

Consider `Clc1cccc(-n2ncc3c(NCCc4ccccc4)ncnc32)c1`, for which the concentration at half-maximal activity (AC50) is 0.316 µM [falling, full curve, poor fit] under setting [2] and 0.178 µM [falling, full curve, poor fit] under setting [1]. Turning to `COc1cccc(NC(=O)c2cc([N+](=O)[O-])ccc2NC(=O)CNCC2CCCO2)c1` (stereo not given), the AC50 under setting [2] is 3.55 µM [rising, single point] and the AC50 under setting [1] is 1.41 µM [rising, full curve, poor fit]. With `CC1CCC(C(C)C)C(OC(=O)Cn2c(-c3ccccc3)[n+](C)c3ccccc32)C1` (stereo not given), the AC50 by setting is: under setting [2], 1.41 µM [rising, full curve]; under setting [1], 8.91 µM [rising, partial curve] and 3.55 µM [rising, full curve]. Regarding `CCCCCNC(=O)c1cc2c(=O)n3ccccc3nc2n1C`, the AC50 under setting [2] was 31.6 µM [falling, partial curve].

With `CC(C)N1CCC(N2CCN(Cc3cc4c(cc3Cl)OCO4)CC2CCO)CC1` (stereo not given), the AC50 is, setting by setting: under setting [2], 1.12 µM [falling, full curve]; under setting [1], 0.891 µM [falling, full curve, poor fit].

On to `CC(C)(C)Nc1ncnc2c1cnn2-c1ccccc1`, for which the AC50 under setting [1] is 6.31 µM [rising, partial curve, poor fit]. In the case of `Cc1cc(/C=N/O)c(C)n1-c1ccc(Br)cc1`, the AC50 under setting [2] is 20 µM [rising, partial curve, poor fit]. Regarding `O=S1(=O)N=C(N(CCO)/N=C/c2ccccc2)c2ccccc21`, the AC50 was 1.26 µM [falling, partial curve, poor fit] under setting [2] and 0.355 µM [falling, partial curve] under setting [1]. Take `O=C(NC(Cc1c[nH]c2ccccc12)C(=O)O)c1cccs1` (stereo not given): the concentration at half-maximal activity (AC50) was 0.00891 µM [falling, full curve, poor fit] under setting [2] and 0.00447 µM [falling, full curve, poor fit] under setting [1]. Regarding `CC1=C(C(=O)OC(C)C)C(c2ccccc2)NC(=S)N1C` (stereo not given), under setting [1], the AC50 is 17.8 µM [rising, single point].

`c1ccc2c(NC3C4CC5CC(C4)CC3C5)nc(N3CCOCC3)nc2c1` (stereo not given): the AC50 reads like this: under setting [2], 3.16 µM [falling, single point]; under setting [1], 35.5 µM [falling, single point].

For `CC(C)Cn1c(=O)c(C(=O)N/N=C/c2cccc(F)c2)c(O)c2ccccc21`, the AC50 under setting [1] was 5.01 µM [rising, single point].

On to `C=CCN(c1ccc(C(=O)N2CCN(c3ccc(F)cc3)CC2)cc1)S(C)(=O)=O`, for which the half-maximal activity concentration (AC50) under setting [1] was 25.1 µM [rising, partial curve, poor fit]. On the same count and under the same terms, the same measure for `COc1cc(/C=C2\SC(=Nc3ccccc3)N(CCc3c[nH]c4ccccc34)C2=O)ccc1OC(C)C(=O)O` (stereo not given): 35.5 µM [rising, single point]. As for `COc1ccc2[nH]cc(CCNc3ncnc4ccc(-c5ccoc5)cc34)c2c1`, the AC50 by setting is: under setting [2], 17.8 µM [falling, partial curve]; under setting [1], 11.2 µM [falling, partial curve]. With `Cc1cc(F)ccc1S(=O)(=O)N1CCCOC1CNC(=O)C(=O)NCCc1c[nH]c2ccccc12` (stereo not given), the concentration at half-maximal activity (AC50) under setting [2] is 12.6 µM [rising, single point] and the AC50 under setting [1] was 25.1 µM [rising, single point].

For the molecule `Cc1ccc(NC(=O)CSc2nc3nc(C)c(Cc4ccccc4)c(C)n3n2)cc1`, the AC50 under setting [2] was 10 µM [falling, partial curve, poor fit] and the half-maximal activity concentration (AC50) under setting [1] is 39.8 µM [falling, partial curve, poor fit].

`CCC(=O)OCC(=O)[C@@]1(OC(=O)CC)[C@H](C)C[C@@H]2[C@@H]3[C@H]([C@@H](O)C[C@@]21C)[C@]1(C)C=CC(=O)C=C1C[C@@H]3Cl`: the AC50 was 0.0178 µM [rising, full curve, poor fit] under setting [2] and 0.447 µM [falling, partial curve] under setting [1]. Take `N#C/C(=C\c1ccc(O)c(O)c1)C(=O)NCCCc1ccccc1`: the concentration at half-maximal activity (AC50) is, setting by setting: under setting [2], 3.16 µM [falling, full curve]; under setting [1], 31.6 µM [rising, single point].

Take `CN(Cc1ccon1)Cc1cn(C)nc1-c1ccc2c(c1)OCCO2`: the AC50 under setting [2] is 4.47 µM [rising, partial curve, poor fit].
